What all share (experiment): affinity purification with mass spectrometry
The target in test [1] is EGFP-RING1B (UniProt Q99496).
The next test concerns the target T1, KDM2B-EGFP (UniProt Q8NHM5).
T1 sequence: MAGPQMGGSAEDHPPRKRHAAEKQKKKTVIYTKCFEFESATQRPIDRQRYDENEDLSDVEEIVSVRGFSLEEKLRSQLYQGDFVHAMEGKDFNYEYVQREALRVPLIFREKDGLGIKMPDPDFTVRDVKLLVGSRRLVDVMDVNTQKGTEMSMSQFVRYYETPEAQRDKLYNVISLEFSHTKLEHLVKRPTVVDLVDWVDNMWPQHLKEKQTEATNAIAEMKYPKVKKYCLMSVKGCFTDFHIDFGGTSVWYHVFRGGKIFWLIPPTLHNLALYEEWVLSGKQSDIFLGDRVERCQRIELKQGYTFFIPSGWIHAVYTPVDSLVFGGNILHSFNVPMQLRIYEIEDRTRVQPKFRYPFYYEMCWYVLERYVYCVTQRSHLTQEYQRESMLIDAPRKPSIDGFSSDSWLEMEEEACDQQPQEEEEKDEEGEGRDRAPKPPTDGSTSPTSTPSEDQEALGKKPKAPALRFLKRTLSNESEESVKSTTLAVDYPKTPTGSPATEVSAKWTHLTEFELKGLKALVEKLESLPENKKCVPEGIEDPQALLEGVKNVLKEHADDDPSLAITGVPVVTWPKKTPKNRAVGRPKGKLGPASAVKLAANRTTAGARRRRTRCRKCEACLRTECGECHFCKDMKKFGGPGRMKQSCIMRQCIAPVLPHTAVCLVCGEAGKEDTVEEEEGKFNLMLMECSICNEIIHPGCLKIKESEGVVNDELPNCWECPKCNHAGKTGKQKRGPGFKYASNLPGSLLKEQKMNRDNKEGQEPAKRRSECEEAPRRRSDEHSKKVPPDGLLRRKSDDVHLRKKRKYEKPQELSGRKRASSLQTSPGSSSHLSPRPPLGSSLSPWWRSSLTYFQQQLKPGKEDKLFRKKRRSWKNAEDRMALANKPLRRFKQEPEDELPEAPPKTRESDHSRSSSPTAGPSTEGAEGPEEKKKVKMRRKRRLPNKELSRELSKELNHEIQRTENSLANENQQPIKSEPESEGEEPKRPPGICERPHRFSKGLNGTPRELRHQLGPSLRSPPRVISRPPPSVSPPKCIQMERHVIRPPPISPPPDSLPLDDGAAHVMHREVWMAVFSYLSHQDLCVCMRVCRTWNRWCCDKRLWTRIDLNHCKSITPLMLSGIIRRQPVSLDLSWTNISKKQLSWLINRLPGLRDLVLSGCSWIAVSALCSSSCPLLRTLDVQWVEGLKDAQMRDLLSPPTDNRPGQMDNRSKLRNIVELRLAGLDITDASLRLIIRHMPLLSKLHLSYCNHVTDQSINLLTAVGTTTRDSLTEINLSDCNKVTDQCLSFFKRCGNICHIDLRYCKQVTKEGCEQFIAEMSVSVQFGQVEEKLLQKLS

The chains behind the UniProt entries cited, without tags or fusion partners. Where a name states a change or a piece, a line headed by the entry shows the natural chain unless it says otherwise.
UniProt Q99496, whole entry, stated change not applied: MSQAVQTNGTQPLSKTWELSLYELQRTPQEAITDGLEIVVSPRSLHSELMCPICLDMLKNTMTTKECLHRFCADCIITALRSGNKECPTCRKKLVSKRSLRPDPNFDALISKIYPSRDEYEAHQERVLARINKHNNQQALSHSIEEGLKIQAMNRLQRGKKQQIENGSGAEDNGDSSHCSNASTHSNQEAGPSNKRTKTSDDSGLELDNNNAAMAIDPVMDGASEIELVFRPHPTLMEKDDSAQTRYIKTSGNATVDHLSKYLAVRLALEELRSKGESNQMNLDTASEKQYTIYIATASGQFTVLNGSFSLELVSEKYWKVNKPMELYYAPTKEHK
UniProt Q9BSM1, whole entry: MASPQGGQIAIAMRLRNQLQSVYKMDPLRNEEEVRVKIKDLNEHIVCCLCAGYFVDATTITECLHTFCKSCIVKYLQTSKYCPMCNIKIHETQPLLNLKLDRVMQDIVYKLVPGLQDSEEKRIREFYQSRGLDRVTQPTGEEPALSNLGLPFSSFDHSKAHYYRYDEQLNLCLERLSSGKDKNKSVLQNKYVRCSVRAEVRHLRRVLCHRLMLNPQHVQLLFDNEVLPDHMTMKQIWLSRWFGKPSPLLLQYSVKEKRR

A further test has as its target PCGF1-EGFP (UniProt Q9BSM1).
In test [2] the target is EGFP-RING1B (UniProt Q99496). This is another data set of the same source.

Read-outs that look alike come from different tables or passages of the source. These are yes or no findings as the source states them, for the method shown. In cells and extracts the contact can be indirect. Here binding means that the protein was enriched with, or labelled near, the bait; the list need not be complete. For some of these results: Where a sequence is shown, tags or fusion partners need not be part of it.

As to SCML2 (from UniProt Q9UQR0 1-700), the binding entry with EGFP-RING1B [1] is reported as “binds”.
On the same count and under the same terms, the result for SCMH1 (from UniProt Q96GD3 1-660) reads “binds”.
In the case of “ubiquitin-specific protease 7 (USP7) (from UniProt Q93009 1-1102) (enzyme)”, the binding entry with KDM2B-EGFP, with EGFP-RING1B [1] and in the test with PCGF1-EGFP was “binds” each time.

B1: CBX4 (protein, UniProt O00257 1-560)
chain: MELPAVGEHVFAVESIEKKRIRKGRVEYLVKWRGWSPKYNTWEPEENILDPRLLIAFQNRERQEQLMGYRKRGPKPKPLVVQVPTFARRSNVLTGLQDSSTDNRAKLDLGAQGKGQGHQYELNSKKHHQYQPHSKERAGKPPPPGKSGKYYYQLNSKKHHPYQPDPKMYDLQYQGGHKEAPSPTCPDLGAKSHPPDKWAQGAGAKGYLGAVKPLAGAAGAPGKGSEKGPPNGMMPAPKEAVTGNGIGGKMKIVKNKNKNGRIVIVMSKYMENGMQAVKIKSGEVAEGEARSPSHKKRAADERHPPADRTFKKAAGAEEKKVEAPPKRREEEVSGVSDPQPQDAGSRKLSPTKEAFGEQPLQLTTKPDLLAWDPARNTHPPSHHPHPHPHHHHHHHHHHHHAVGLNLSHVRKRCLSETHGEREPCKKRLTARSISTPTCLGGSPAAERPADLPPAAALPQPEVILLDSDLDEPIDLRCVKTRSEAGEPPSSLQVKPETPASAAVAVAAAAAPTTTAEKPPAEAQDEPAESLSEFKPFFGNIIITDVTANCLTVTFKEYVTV
With B1, the binding result with EGFP-RING1B [2] is “binds”.

B2: PCGF2 (endogenous) (protein, UniProt P35227 1-344)
chain: MHRTTRIKITELNPHLMCALCGGYFIDATTIVECLHSFCKTCIVRYLETNKYCPMCDVQVHKTRPLLSIRSDKTLQDIVYKLVPGLFKDEMKRRRDFYAAYPLTEVPNGSNEDRGEVLEQEKGALSDDEIVSLSIEFYEGARDRDEKKGPLENGDGDKEKTGVRFLRCPAAMTVMHLAKFLRNKMDVPSKYKVEVLYEDEPLKEYYTLMDIAYIYPWRRNGPLPLKYRVQPACKRLTLATVPTPSEGTNTSGASECESVSDKAPSPATLPATSSSLPSPATPSHGSPSSHGPPATHPTSPTPPSTASGATTAANGGSLNCLQTPSSTSRGRKMTVNGAPVPPLT
With B2, in the test with EGFP-RING1B [2], the binding entry is reported as “binds”.

The record behind these values is article doi:10.1101/221093.
